# Reference: the supplement of paper PMC12889115
# The other results are listed elsewhere or left out. These are raw signals, not scaled to a control.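 In the initial screen, polymyxin B was used at a concentration that permeabilizes Salmonella's outer membrane but not its inner membrane. Maximum growth was set by DMSO wells with or without polymyxin B. Since plates varied, data were ranked per plate, and compounds giving the lowest OD600 advanced as hits.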
# Tested on: Salmonella enterica serovar Typhimurium SL1344
# Assay: bacterial growth OD600 after 18 h with compound and polymyxin B; higher = more bacterial growth (less inhibition)
# Details: 50 µM, Mueller-Hinton broth
SMILES,bacterial growth OD600 (polymyxin B 1 µg/mL),bacterial growth OD600 (polymyxin B 0.75 µg/mL)
CC(C)N(C)C(=O)c1cc(COc2cccc(C(F)(F)F)c2)[nH]n1,1.23,
O=C(c1cc(COc2cccc(F)c2)[nH]n1)N1CCCCC1c1ccccn1 (stereo unspecified),,0.804
O=C(c1csc2nc(-c3ccccc3)cn12)N1CCCCC1c1cccnc1 (stereo unspecified),0.7,
O=C(NCc1ccon1)C1(N2CCCCC2)Cc2ccccc2C1,,0.744
COc1cc(Cl)ccc1OCc1cc(C(=O)N(C)C2CCOC2)no1 (stereo unspecified),0.871,
CCC(C)CC(=O)NCCN1Cc2cc(OC)ccc2OC(CC)C1 (stereo unspecified),,0.769
COCCn1cnc2cc(NC(=O)C3CCCCC3)cc(C(=O)NCC3CCN(C(C)C)CC3)c21,,0.844
O=C(Nc1cccc(-c2ccc(F)cc2)c1)C1CCCN(Cc2ccccn2)C1 (stereo unspecified),,0.013
Cc1ncoc1C(=O)NC1CC(C)(C)Cc2nc(C(C)(C)C)ncc21 (stereo unspecified),0.848,
Cc1cccc(-c2cnc(-c3ccncc3)nc2C2CCN(C(=O)c3cccs3)CC2)c1,,0.007
CCOC(=O)C1(Cc2ccccc2F)CCCN(C(=O)c2ccc3c(c2)OCCO3)C1 (stereo unspecified),0.555,
O=C(CCC1CCCN(Cc2cccn2-c2cccnc2)C1)Nc1ccccc1F (stereo unspecified),0.911,
COc1cccc(C2CCCN2C(=O)c2cn(Cc3ccccc3Cl)nn2)c1 (stereo unspecified),0.206,
O=C(NC1CCCC1)c1ccc(N2CCC(NCCC3=CCCCC3)CC2)cc1,,0.767
Cc1oc(-c2ccc(NC(=O)Cc3ccccc3)cc2)nc1CNC(=O)Cc1ccccc1F,,0.913
COc1cc(Cl)cc(CNC2COc3ccccc3C2)c1OC (stereo unspecified),1.12,
O=C1N(Cc2ccc(F)c(F)c2)CCCC1(O)CNC1CCCC1 (stereo unspecified),0.942,
CCN(CC)C1CCN(C(=O)c2cc(Cl)ccc2OC2CCN(C(C)=O)CC2)C1 (stereo unspecified),,0.873
Cc1oc(-c2cc(F)ccc2F)nc1CN1CCCCC1CCN1CCCC1=O (stereo unspecified),0.776,
COC(=O)CCCC(=O)N1CCCC(Nc2ccc(C)c(C)c2)C1 (stereo unspecified),0.936,
CCOC(=O)C1(CCCc2ccccc2)CCN(C(=O)CCN2CCCCC2=O)CC1,0.734,

# Quoted at random: 2 entries already listed, in no set order.
SMILES,bacterial growth OD600 (polymyxin B 1 µg/mL),bacterial growth OD600 (polymyxin B 0.75 µg/mL)
CC(C)N(C)C(=O)c1cc(COc2cccc(C(F)(F)F)c2)[nH]n1,1.23,
O=C(c1csc2nc(-c3ccccc3)cn12)N1CCCCC1c1cccnc1 (stereo unspecified),0.7,
